PubChem BioAssay AID686943, Drosophila RNAi Screening Center | 2013
In all, the deposit lists about 23,000 reagents; this is a random part of those with a known target gene and a result. 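Extra replicates exist only for a retested subset of genes; insulin dose and duration not given; both raised and lowered dpERK matter.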 Reagents against one gene are numbered here. Names joined by + are all predicted targets of the reagent. Not all columns of the deposit are shown. Reagent sequences are not shown. Not stated in the record: the amount of reagent, the time to read-out.

Test: 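Knockdowns that increase or decrease active ERK after insulin receptor stimulation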 (primary screen)
System: Drosophila S2R+ haemocyte-like cells expressing YFP-tagged ERK (Rolled)
Reagents: long dsRNA against Drosophila genes
Challenge: insulin stimulation versus unstimulated cells; dose and duration not given
Read-out: 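Antibody staining for doubly phosphorylated ERK divided by ERK-YFP signal, as plate z-scores, in insulin-treated and untreated cells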
Reading the numbers: replicate 1, z-score of dpERK with insulin: higher = more active ERK per ERK-YFP after insulin

replicate 1, z-score of dpERK with insulin, by predicted target and reagent
Lectin-galC1 (GeneID 35216): #1 -0.31
CG31650 (GeneID 326150): #1 -0.9
Mur29B (GeneID 319014): #1 1.17; #2 -0.29
Gsc (GeneID 33240): #1 0
Edc3 (GeneID 39957): #1 -0.01
Pif1A + Pif1B: #1 0.27; #2 0.89; #3 1.12
Akap200 (GeneID 34170): #1 -0.78
CG34149 (GeneID 4379861): #1 0.36
CG17666 (GeneID 39452): #1 0.03
CG6665 (GeneID 36903): #1 0.09
CG9686 (GeneID 31921): #1 -1.03
CG31817 (GeneID 260659): #1 -0.37; #2 0.9; #3 0.18
Asap (GeneID 35783): #1 0.52; #2 0.43
CG31058 (retired record) (GeneID 43320): #1 0
CG2061 (GeneID 32042): #1 -0.09
vari (GeneID 35343): #1 -0.32
CG34015 (GeneID 3885570): #1 -0.05
mRpL14 (GeneID 31222): #1 -0.22
Imp (GeneID 32009): #1 1.42; #2 0.84; #3 -0.41; #4 0.41
alpha-Cat (GeneID 40517): #1 -0.13
Indy (GeneID 40049): #1 0
Cpr30B (GeneID 34270): #1 0.54
CR12842 (GeneID 12798079): #1 -0.44
CG8952 (GeneID 32525): #1 0.07
CG3609 (GeneID 33421): #1 0.05
Obp51a (GeneID 246666): #1 -0.41
pad (GeneID 41981): #1 0.03
Rbbp5 + CG6434 (retired record): #1 0.35
Mulk (GeneID 326168): #1 -0.59
Nt5a (GeneID 38148): #1 0.7
Cp190 (GeneID 41848): #1 0.39
CG2812 (GeneID 37801): #1 -1.11
CG12814 (GeneID 41246): #1 -0.63; #2 -1.18
CG9016 (GeneID 33822): #1 0.06
CG4053 (GeneID 42070): #1 0.7
NaCP60E (GeneID 37981): #1 0.12; #2 0.06
Prp3 (GeneID 40172): #1 2.98
CG8726 (GeneID 35758): #1 1.13
temp (GeneID 31212): #1 0.07
Set1 (GeneID 3354971): #1 -0.58; #2 -1.32
CG16772 (GeneID 35281): #1 0.43
CG15170 (GeneID 35160): #1 -0.48
CG13220 (GeneID 36200): #1 -0.42
mor (GeneID 41942): #1 0.2
CG14277 (GeneID 34129): #1 0.33

4 of these entries in another layout.
predicted target	dsRNA no.	replicate 1, z-score of dpERK with insulin
Imp (GeneID 32009)	3	-0.41
Imp (GeneID 32009)	4	0.41
alpha-Cat (GeneID 40517)	1	-0.13
Indy (GeneID 40049)	1	0
